In PubChem BioAssay AID1487 (National Center for Advancing Translational Sciences (NCATS), 2009):
The other results are listed elsewhere or left out. Shown are side measurements of this screen, not its main read-out; they come without a call. Compounds called inactive in the main read-out are mostly missing here. Words in brackets tell the shape of the fitted curve; partial curves, single points and poor fits give uncertain potencies.

Test: qHTS Assay for Modulators of Lamin A Splicing
Conditions: HeLa LMNA splicing GFP/RFP minigene ratio, 48 h
Method in brief: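 S3 HeLa stable clones carrying a lamin A-EGFP splicing minigene plus DsRed2 were seeded at 600 cells/well in Opti-MEM with 2% FBS, pin-dosed and incubated 48 h at 37°C. Acumen cytometry (488 nm) gave the GFP/RFP total-intensity ratio.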

[1] = measured here: RFP viability control channel
[2] = measured here: GFP splicing reporter channel

## O=C(N/N=C/c1ccc(N2CCCCC2)o1)c1ccccc1
[1]
  AC50: 31.6 µM [rising, single point]

## CCc1cccc(CC)c1NC(=O)CN(CC(=O)O)CC(=O)O
[2]
  AC50: 0.0891 µM [falling, full curve, poor fit]

## CCCn1c(=O)c2ccccc2n2c(SCc3nc4ccccc4s3)nnc12
[2]
  AC50: 11.2 µM [rising, partial curve, poor fit]

## CCC(C)Sc1nnc(CSc2nc(C)cc(C)n2)n1C (configuration not stated)
[1]
  AC50: 2 µM [falling, partial curve, poor fit]

## COCCn1c(SCC(=O)Nc2cc(Cl)ccc2OC)nc2c(c1=O)SC(C)C2 (configuration not stated)
[1]
  AC50: 25.1 µM [rising, single point]

## Cc1cccc(NC(=O)CN2C(=O)S/C(=C\c3ccccn3)C2=O)c1
[2]
  AC50: 35.5 µM [rising, single point]

## O=C(COc1ccccc1Br)c1ccc(O)cc1O
[2]
  AC50: 0.501 µM [rising, single point]
[1]
  AC50: 22.4 µM [rising, single point]

## S=C(NCCc1ccccc1)Nc1ccc(Nc2ccccc2)cc1
[1]
  AC50: 3.16 µM [falling, partial curve]

## Cc1ccccc1C(=O)c1c[nH]c(C(=O)NCCCn2ccnc2)c1
[2]
  AC50: 12.6 µM [falling, partial curve]

## O=C(COC(=O)C1(c2ccccc2F)CCCC1)NCc1ccc2c(c1)OCO2
[1]
  AC50: 35.5 µM [rising, single point]

## CN(CCc1cnn(C)c1)C(=O)CCc1nnc(CCCc2ccccc2)o1
[2]
  AC50: 0.1 µM [falling, full curve]

## COc1ccc(CCNC(=S)Nc2cccc3ccccc23)cc1
[2]
  AC50: 22.4 µM [rising, single point]
[1]
  AC50: 25.1 µM [rising, single point]

## c1ccc(Nc2nc(N3CCOCC3)c3ccccc3n2)cc1
[1]
  AC50: 11.2 µM [rising, partial curve]

## O=C1NC(c2ccccc2)=C(c2nc3ccccc3s2)C(c2ccc(F)cc2)N1 (configuration not stated)
[2]
  AC50: 0.0316 µM [falling, single point]
[1]
  AC50: 0.0316 µM [falling, single point]

## CCOC(=O)c1ccc(CN(Cc2ccc(C)cc2)S(=O)(=O)c2ccc(F)c(C(=O)Nc3ccc(C)c(F)c3)c2)cc1
[1]
  AC50: 2 µM [falling, partial curve]

## COc1ccccc1C1(CCNS(=O)(=O)c2ccc(C)cc2)CCOC(C(C)C)C1 (configuration not stated)
[2]
  AC50: 12.6 µM [rising, single point]
[1]
  AC50: 17.8 µM [rising, single point]

## CC1(C)CC2C1CC[C@]1(C)CCC3C(C(=O)O)CC(=O)O[C@]32C1 (some centres not stated)
[2]
  AC50: 14.1 µM [rising, partial curve]
[1]
  AC50: 35.5 µM [rising, single point]

## c1ccc(-n2nnnc2CN2CCOCC2)cc1
[1]
  AC50: 0.891 µM [rising, full curve]

## CC(NC(=O)C(=O)NN=C1CCC(C(C)(C)C)CC1)c1ccccc1 (configuration not stated)
[2]
  AC50: 4.47 µM [falling, single point]

## O=C(NCC(c1ccc2c(c1)OCO2)N1CCN(c2ccccc2)CC1)C(=O)Nc1ccc(F)cc1 (configuration not stated)
[1]
  AC50: 0.2 µM [falling, full curve, poor fit]

## OC1CCCN(C(=S)Nc2ccc(SC(F)F)cc2)C1 (configuration not stated)
[2]
  AC50: 10 µM [rising, single point]
[1]
  AC50: 15.8 µM [rising, single point]

## Cc1onc(-c2ccccc2)c1C(=O)Nc1ccc(S(=O)(=O)N2CCCCC2)cc1
[1]
  AC50: 35.5 µM [rising, single point]

## CC(O)CNc1nc2c(c(=O)n(C)c(=O)n2C)n1Cc1cccc(Br)c1 (configuration not stated)
[1]
  AC50: 7.08 µM [rising, partial curve]

## OCCN1CCN(C(=S)Nc2ccc(SC(F)F)cc2)CC1
[2]
  AC50: 35.5 µM [falling, single point]
[1]
  AC50: 31.6 µM [falling, partial curve]

## CN(C)S(=O)(=O)c1cccc(C(=O)NC(=S)N(CCC#N)Cc2cccnc2)c1
[2]
  AC50: 35.5 µM [rising, single point]
[1]
  AC50: 0.0112 µM [falling, full curve, poor fit]

## COC(=O)c1sccc1S(=O)(=O)N(CC(=O)NCc1ccc(C)cc1)c1ccccc1
[2]
  AC50: 2.82 µM [falling, partial curve, poor fit]
[1]
  AC50: 0.0141 µM [falling, full curve, poor fit]

## CCCCC(=O)Nc1cccc(-c2cn3ccsc3n2)c1
[2]
  AC50: 8.91 µM [rising, partial curve, poor fit]
[1]
  AC50: 7.94 µM [rising, partial curve]

## Cc1ccc(S(=O)(=O)NCC(=O)N/N=C/c2ccc(Cl)cc2Cl)cc1
[1]
  AC50: 12.6 µM [rising, partial curve, poor fit]

## Cc1nn(C)c(C)c1CN(C)S(=O)(=O)c1ccc2ccccc2c1
[2]
  AC50: 0.891 µM [rising, partial curve]
[1]
  AC50: 0.562 µM [rising, full curve]

## CS/C(=C\[N+](=O)[O-])Nc1ccc(OC(F)(F)F)cc1
[1]
  AC50: 0.00794 µM [falling, full curve, poor fit]

## CCOC(=O)N1CCN(S(=O)(=O)c2ccc(F)c(C(=O)Nc3ccc(C(C)C)cc3)c2)CC1
[1]
  AC50: 15.8 µM [rising, single point]

## COC(=O)CCS(=O)(=O)c1nc(-c2ccccc2)cc(C(F)(F)F)n1
[1]
  AC50: 12.6 µM [rising, partial curve]

## COc1ccc(NS(=O)(=O)c2ccc(NC(=O)c3ccc(N(C)S(C)(=O)=O)cc3)cc2)c(OC)c1
[2]
  AC50: 3.16 µM [rising, partial curve, poor fit]
[1]
  AC50: 2.82 µM [rising, full curve]

## CCCc1cc(=O)[nH]c(SCc2csc(-c3ccccc3)n2)n1
[2]
  AC50: 35.5 µM [rising, single point]
[1]
  AC50: 31.6 µM [rising, single point]

## c1ccc(-c2nnc(CSc3nnc(-c4ccncc4)n3Cc3ccco3)o2)cc1
[2]
  AC50: 14.1 µM [rising, single point]
[1]
  AC50: 14.1 µM [rising, single point]

## CCCc1nc2c(c(=O)c3ccccc3n2C)c(=O)n1C1CCCCCC1
[1]
  AC50: 25.1 µM [rising, single point]

## O=C(c1ccccc1)N1CCC(O)(c2cccnc2)CC1
[2]
  AC50: 3.98 µM [rising, single point]
[1]
  AC50: 6.31 µM [rising, single point]

## CCOC(=O)c1sc2ccccc2c1OC(=O)c1ccccc1OC
[1]
  AC50: 0.282 µM [rising, full curve, poor fit]

## CCN(CC)c1ncnc2sc(C(=O)N3CCN(c4ccc(OC)cc4)CC3)c(C)c12
[1]
  AC50: 35.5 µM [rising, single point]

## O=C(Cc1ccccc1)c1c[nH]c(C(=O)NCCCn2ccnc2)c1
[2]
  AC50: 6.31 µM [rising, single point]

## CCOC(=O)c1cccc(NC(=O)c2ccc(N(C)C)cc2)c1
[1]
  AC50: 11.2 µM [rising, partial curve, poor fit]

## Cc1c(C(=O)N(C)Cc2ccccc2)sc2nc(-c3ccc(F)cc3)cn12
[1]
  AC50: 7.08 µM [rising, partial curve]

## Cc1cc(NC(=O)CCc2ccc(S(=O)(=O)N3CCOCC3)cc2)n(-c2ccccc2)n1
[1]
  AC50: 35.5 µM [rising, single point]

## Cc1ccc(-c2cn3c(n2)sc2cc(C(=O)NC4CCCCCC4)ccc23)cc1
[1]
  AC50: 0.0158 µM [falling, full curve]

## CCOC(=O)N1CCN(C(=O)C2CCN(Cc3cccc(OCc4ccccc4)c3)CC2)CC1
[2]
  AC50: 31.6 µM [rising, single point]
[1]
  AC50: 35.5 µM [rising, single point]

## Cc1nc2c(-c3ccccc3)c(C)nn2c(N)c1-c1ccccc1
[1]
  AC50: 35.5 µM [rising, single point]

## O=c1[nH]c(-c2ccccn2)cc2ccccc12
[1]
  AC50: 35.5 µM [falling, single point]

## CCCc1nnc(NC(=O)c2c(O)c3c([nH]c2=O)CCCC3)s1
[1]
  AC50: 0.0501 µM [rising, full curve, poor fit]

## CCOc1cc(-c2cc(-c3ccc(C)o3)nc(N)c2C#N)ccc1O
[1]
  AC50: 12.6 µM [rising, single point]

## O=S(Cc1ccc(Br)cc1)Cc1nnc(SCc2ccc(Cl)cc2)n1-c1ccccc1 (configuration not stated)
[2]
  AC50: 15.8 µM [falling, single point]
[1]
  AC50: 25.1 µM [falling, single point]

## c1ccc(Cn2c(Sc3nnnn3-c3ccccc3)nnc2-c2ccccc2)cc1
[1]
  AC50: 31.6 µM [rising, single point]

## Oc1ccccc1/C=N/NC(=S)NC1CC2CC1C1C=CCC21 (configuration not stated)
[2]
  AC50: 22.4 µM [falling, single point]
[1]
  AC50: 10 µM [falling, partial curve]

## CC(=O)O/N=C/c1c(N2CCOCC2)n(C)c2ccccc12
[2]
  AC50: 15.8 µM [falling, single point]
[1]
  AC50: 22.4 µM [falling, partial curve, poor fit]

## CCOc1ccccc1NC1=CC(=O)CC(c2ccccc2)C1 (configuration not stated)
[2]
  AC50: 15.8 µM [falling, single point]
[1]
  AC50: 35.5 µM [falling, single point]

## NC(=S)N/N=C\c1ccc(-c2cccc(Cl)c2Cl)o1
[2]
  AC50: 5.01 µM [falling, partial curve]
[1]
  AC50: 6.31 µM [falling, full curve]

## COc1cc(/C=C2\SC(=S)N(Nc3ccccc3)C2=O)cc(OC)c1OC
[1]
  AC50: 14.1 µM [falling, single point]
